## Library screen at single concentrations

Data taken from ChEMBL document CHEMBL3988442, “University of Dundee, Small-Polar-MMV Screening Library” (2021).

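Assay of Toxoplasma gondii numbers, read through their beta-galactosidase reporter with a colour substrate. Tested at 10 µM. Higher reads as fewer parasites (inferred from which compounds were picked for retests). Size under these conditions: about 67,000 compounds, about 260 of them at 50% or above in at least one test.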

Values are the deposited “Percent Effect”, in %. The record does not define 0% and 100%; most values in the screen are far below 50% and negative numbers occur (in some assays of this library far below -100). This is an unselected part of the compounds tested.

For CCN1CCC2(CC1)c1nc[nH]c1CCN2S(C)(=O)=O the result was -1.906%. Result for CC(NC(=O)CCn1cccn1)c1ccc2c(c1)OCCO2 (configuration not stated) was -4.79%. For O=C(c1ccnnc1)N1CCc2onc(Cn3cccn3)c2C1 the result was 3.746%. Result for O=C(CN1CCCC(c2noc(C3CC3)n2)C1)N1CCCC1 (configuration not stated) was 4.609%. O=C(CC1CC2(CCN(CC3CC3)CC2)Oc2ccccc21)NC1CC1.O=C(O)C(F)(F)F (configuration not stated) gave -4.253%. With COc1ccccc1N1CCC(CNCc2ccc(C#N)cc2)C1 (configuration not stated) the screen gave 0.2665%.

With CCOC(=O)C1CCN(C(=O)c2cnn(-c3ccccc3F)c2N)CC1 the screen gave 7.61%. [H][C@@]12CN(C(=O)CCO)C[C@]1([H])C(=O)N(c1ccccc1)C2 read -3.291%. For N#Cc1nccnc1N1CCC(c2nc(C(F)(F)F)c[nH]2)CC1 the result was 1.622%. With Cc1c(CN2C[C@@H](O)[C@H](Oc3cccc(F)c3)C2)cnn1C the screen gave -4.336%. COc1cccc(CNC(=O)c2nc3c(s2)CCN(C(C)=O)CC3)c1 read 11.06%. CNC(=O)c1cn2cc(-c3ccccc3Cl)n(CC=C(C)C)c(=O)c2n1 gave -29.57%.

With O=C1NCCCCC1NC(=O)C1(c2cccc(Cl)c2)CC1 (configuration not stated) the screen gave 3.98%. [H][C@]12CC[C@]([H])(CN(S(=O)(=O)N(C)C)C1)N(Cc1ccc3c(c1)OCCO3)C2 gave 11.47%. Result for COc1cccc(CN2CCC(c3cc(O)nc(C)n3)C2)c1.O=C(O)CC(O)(CC(=O)O)C(=O)O (configuration not stated) was 11.47%. c1cc(-c2noc([C@@H]3CCCN3C3CCC3)n2)cc(N2CCCC2)n1 gave -5.677%. For O=C(c1cccc(F)c1)N1CCOC(c2nc(-c3ncccn3)no2)C1 (configuration not stated) the result was -2.496%. Result for c1cnc(N2CCOCC3(CNCCO3)C2)nc1 (configuration not stated) was -0.6577%.

With CC(C)[C@H](NC(=O)NC1CCS(=O)(=O)C1)C(=O)NCc1ccc(Cl)cc1 (some centres not stated) the screen gave -25.51%. Result for O=C(NCCOc1ncc(Cl)cc1Cl)c1ccoc1 was 9.38%. For CCC(C(=O)NCc1csc(-c2ncccn2)n1)n1cccn1 (configuration not stated) the result was -0.5206%. With Cc1cccc(C)c1-n1nnnc1C1(NCc2ccco2)CCCC1 the screen gave 0.3874%. Cc1ccccc1C(=O)N1CC[C@@H](N2CCC(O)CC2)[C@H](O)C1 read 4.429%. With CCCN1CCC2(C1)c1ccccc1S(=O)(=O)N2Cc1ccccc1.O=C(O)C(F)(F)F (configuration not stated) the screen gave 1.973%.

For Cc1ccc(C)c(-c2csc(N)c2C#N)c1 the result was -1.554%. With CC1CN(C(=O)Nc2cc(C(F)(F)F)c[nH]c2=O)CCO1 (configuration not stated) the screen gave 2.995%. Cc1cc(S(=O)(=O)NCC(O)c2sccc2C)ccc1F (configuration not stated) read 24.32%. Result for CCOCCNC(=O)C1CCC(=O)N(CCc2ccc(Cl)cc2)C1 (configuration not stated) was -28.38%. Result for Cc1cnn(CC2CCCN2C(=O)c2cc3c(F)cccc3[nH]2)c1 (configuration not stated) was -2.447%. For [H][C@]12CN(Cc3cccnc3)C(=O)[C@@]1([H])CN(C1CCOCC1)C2 the result was -0.1952%.

With O=C(Cc1cccnc1)N1CC(Cc2nccc3cc[nH]c23)C1 the screen gave 1.62%. For CCNC(=O)c1cc2n(n1)CCCO2 the result was -35.17%. Cc1cc(C)n(CC2CN(Cc3nnc(C)o3)CCO2)n1 (configuration not stated) read 22.82%. With CN1CCC(N(Cc2ccncc2)C(=O)COCC2CCCCO2)CC1 (configuration not stated) the screen gave -22.26%. For COc1cccc(CC(=O)N2CCN(C)c3ncccc3C2)c1.O=C(O)C(F)(F)F the result was 5.003%. CCCC1(CO)CCCN(Cc2nccs2)C1 (configuration not stated) gave 6.05%.

For Cc1ccc(C)c(NC(=O)Cc2c(C)nc3c(c2C)c(=O)[nH]n3C)c1 the result was -12.08%. COc1ccc(S(=O)(=O)N2CCOC(Cn3ccnc3)C2)cc1.Cc1ccc(S(=O)(=O)O)cc1 (configuration not stated) read -3.636%. For CC1CCCCN1CCNC(=O)NCc1ccc(C#N)cc1F (configuration not stated) the result was -4.417%. c1ccc(-c2nc(CN3CCOC(Cn4cncn4)C3)cs2)cc1 (configuration not stated) gave -10.91%. Cc1cc(N2CCC(NC(=O)CCc3cnn(C)c3)CC2)nc(C)n1 read -7.537%. For COC(=O)N1CC2=CC(C)(C)COc3ccc(OC)c(c32)C1 the result was -1.158%.

Cc1nccn1-c1ncccc1CNC(=O)c1ccc(O)nc1 read 2.087%. CN1CCCN(c2nccc(-c3c[nH]nc3C3CCCCC3)n2)CC1 read 24.02%. With COCC1CCN(C(=O)c2cn(Cc3ccccc3F)nn2)CC1 the screen gave 2.507%. Result for O=C(O)C(F)(F)F.[H][C@@]12C[C@H](c3nc(C)no3)CN(Cc3cccs3)[C@]1([H])CCO2 was -13.84%. Result for Cc1cc(C)n(-c2ccc(CNCc3cccc(C#N)c3)cn2)n1 was 3.281%. For CC(C)OCCN(C)C(C)c1cccc(S(N)(=O)=O)c1 (configuration not stated) the result was -2.336%.

With Cc1cccc(CN2CCC3(CCC(CC(=O)N(C)C)CC3)CC2)n1.O=C(O)C(F)(F)F the screen gave -6.513%. Cn1cc(C2CC(=O)NC23CCN(C(=O)c2ccc[nH]2)CC3)cn1 (configuration not stated) read 0.7173%. Cc1nc(O)c2nnn(C[C@H]3CCCN3C(=O)c3ccccc3C)c2n1 gave -3.447%. OCCCNc1nc(O)c2c(n1)-c1ccccc1CC21CCCCC1 gave 12.66%.

For reference, 4 entries once more:

| compound | effect |
|---|---|
| `CCOC(=O)C1CCN(C(=O)c2cnn(-c3ccccc3F)c2N)CC1` | 7.61 |
| `CN1CCC(N(Cc2ccncc2)C(=O)COCC2CCCCO2)CC1` (configuration not stated) | -22.26 |
| `CCCN1CCC2(C1)c1ccccc1S(=O)(=O)N2Cc1ccccc1.O=C(O)C(F)(F)F` (configuration not stated) | 1.973 |
| `Cc1ccc(C)c(-c2csc(N)c2C#N)c1` | -1.554 |